Results published in PubChem BioAssay AID720540 (National Center for Advancing Translational Sciences (NCATS), 2013).
The campaign covered roughly 1,300 compounds. About 460 (35%) were called active. The shares of active, inactive and inconclusive entries below differ from those in the screen. Calls come from the whole dose curve; as a rule, active = well fitted inhibition curve with a large enough effect; inconclusive = small, poorly fitted or top-dose-only effect; inactive = flat fitted curve, though single readings scatter. Where the call is inconclusive, the potency comes from a doubtful curve fit.
Note: nearly all actives have a fitted effect of over 65% in size.
Potency is the fitted concentration of half-maximal effect.

Protein sequences, listed by entry. Tags and fused reporters are not part of them. Lines headed by an entry give the natural chain unless they say otherwise; changes in a name come on top.
UniProt O00167: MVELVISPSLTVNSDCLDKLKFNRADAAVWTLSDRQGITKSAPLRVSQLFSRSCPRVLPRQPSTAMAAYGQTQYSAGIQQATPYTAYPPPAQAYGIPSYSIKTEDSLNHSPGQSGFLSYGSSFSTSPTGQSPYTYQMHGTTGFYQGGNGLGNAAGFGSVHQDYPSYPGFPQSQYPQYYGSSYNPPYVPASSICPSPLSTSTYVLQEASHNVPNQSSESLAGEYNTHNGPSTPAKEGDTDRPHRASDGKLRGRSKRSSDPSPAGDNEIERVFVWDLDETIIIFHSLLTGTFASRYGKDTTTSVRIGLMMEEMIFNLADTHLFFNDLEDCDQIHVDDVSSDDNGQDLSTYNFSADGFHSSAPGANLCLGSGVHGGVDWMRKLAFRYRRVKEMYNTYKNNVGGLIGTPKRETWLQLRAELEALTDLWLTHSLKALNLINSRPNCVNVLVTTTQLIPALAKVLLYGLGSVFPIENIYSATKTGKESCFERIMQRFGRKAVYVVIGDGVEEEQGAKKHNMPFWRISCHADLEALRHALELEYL

Each compound was assayed against Protein phosphatase EYA2 (Homo sapiens) (UniProt O00167) (assay: qHTS for Inhibitors of the Phosphatase Activity of Eya2: Confirmatory Assay for Cherry-picked Compounds). Conditions: purified EYA2 phosphatase activity, qHTS confirmation; series mostly up to 46.1 µM.
Method in brief: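 Eya2 (0.2 uM working solution) preincubated 10 min at room temperature with compound in pH 7.5 HEPES buffer with MgCl2, BSA, DTT. OMFP added (50 uM working solution), 10 min more; fluorescence 485/525 nm, normalized to EGTA and DMSO.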
In the case of `CCn1cc(C(=O)OCC(=O)c2cc(C)n(-c3ccccc3F)c2C)c(=O)c2ccc(C)nc21`, the Potency is reported as inconclusive: 15.1 µM [inhibitor, partial curve].
In the case of `COc1ccc(-n2c(=O)c3c4c(sc3n(CC(=O)Nc3cc(C)[nH]n3)c2=O)CCC4)c(OC)c1`, the Potency is reported as inconclusive: 19 µM [inhibitor, single point].
`N#C/C(=C\c1ccc(-c2cccc(C(F)(F)F)c2)o1)C(=O)Nn1cnnc1` was tested, and the Potency was inconclusive: 19 µM [inhibitor, partial curve].
In the case of `O=C(NCCCNC1CCCCC1)c1ccc(/C=N/O)nc1`, the Potency is reported as inconclusive: 21.3 µM [inhibitor, partial curve].
For `O=C(Oc1ccc(Cl)c2cccnc12)C12CC3CC(CC(C3)C1)C2`, the Potency was “inactive”.
`CC1(C)CC2CC(C)(CN2/C=N/c2sc3c(c2C#N)CC(C)(C)NC3(C)C)C1` (centres undefined) was tested, and the Potency was inconclusive: 19 µM [inhibitor, partial curve].
For `O=C(COc1ccc2c(-c3ccccc3)cc(=O)oc2c1)NC(Cc1c[nH]c2ccccc12)C(=O)O` (centres undefined), the Potency was inconclusive: 19 µM [inhibitor, partial curve].
`COc1cc(N(C(C)=O)c2ccc(O)c(C(=O)O)c2)c2ncccc2c1` was tested, and the Potency was inconclusive: 19 µM [inhibitor, single point].
For `Cc1nn(-c2ccccc2)c2c1C(c1cccnc1)N1C=C(S(=O)(=O)N3CCCCC3)C=CC1=N2` (centres undefined), the Potency was “inactive”.
For `COc1ccc(N2CCN(C(=O)c3cc(-c4cc(OC)ccc4OC)nc4ccccc34)CC2)cc1`, the Potency was active: 16.9 µM.
With `COc1ccc(NC(=O)COc2cccc3c2CCN(C)C3=O)c(OC)c1` the Potency was active: 12 µM.
For `O=c1[nH]c(SCCOc2ccccc2F)nc2ccccc12`, the Potency was inconclusive: 3.79 µM [inhibitor, full curve, poor fit].
With `c1ccc(CSc2ccc3nnc(-c4ccccn4)n3n2)cc1` the Potency was active: 19 µM.
With `O=C(COC(=O)c1n[nH]c(=O)c2ccccc12)Nc1cccc(S(=O)(=O)N2CCOCC2)c1` the Potency was inconclusive: 19 µM [inhibitor, partial curve].
For `Fc1ccccc1/C=N/N1CCN(Cc2ccccc2Cl)CC1`, the Potency was inconclusive: 19 µM [inhibitor, partial curve].
With `Cc1cc(C)c(OCCCCN(C)Cc2ccccc2)c(C)c1` the Potency was “inactive”.
`C[n+]1ccc(/C=C/c2cc[n+](C)c3ccccc23)c2ccccc21` was tested, and the Potency was active: 9.53 µM.
`O=C(CC(=O)c1c(F)cccc1Cl)c1ccccc1O` was tested, and the Potency was “inactive”.
With `COc1ccc(/C=C/C(=O)Nc2cccc(S(=O)(=O)N3CCOCC3)c2)cc1OC` the Potency was inconclusive: 12 µM [inhibitor, partial curve].
